No constants are given. Whether binding was seen depends on the method and setting. In cells and extracts the contact can be indirect. Some entries that bind do so weakly or less than the wild type. For some assays here: Sequences can lack the tags named with a protein.
T1: HA-tagged ATG2A wild type (human), Q2TAZ0
T1 chain: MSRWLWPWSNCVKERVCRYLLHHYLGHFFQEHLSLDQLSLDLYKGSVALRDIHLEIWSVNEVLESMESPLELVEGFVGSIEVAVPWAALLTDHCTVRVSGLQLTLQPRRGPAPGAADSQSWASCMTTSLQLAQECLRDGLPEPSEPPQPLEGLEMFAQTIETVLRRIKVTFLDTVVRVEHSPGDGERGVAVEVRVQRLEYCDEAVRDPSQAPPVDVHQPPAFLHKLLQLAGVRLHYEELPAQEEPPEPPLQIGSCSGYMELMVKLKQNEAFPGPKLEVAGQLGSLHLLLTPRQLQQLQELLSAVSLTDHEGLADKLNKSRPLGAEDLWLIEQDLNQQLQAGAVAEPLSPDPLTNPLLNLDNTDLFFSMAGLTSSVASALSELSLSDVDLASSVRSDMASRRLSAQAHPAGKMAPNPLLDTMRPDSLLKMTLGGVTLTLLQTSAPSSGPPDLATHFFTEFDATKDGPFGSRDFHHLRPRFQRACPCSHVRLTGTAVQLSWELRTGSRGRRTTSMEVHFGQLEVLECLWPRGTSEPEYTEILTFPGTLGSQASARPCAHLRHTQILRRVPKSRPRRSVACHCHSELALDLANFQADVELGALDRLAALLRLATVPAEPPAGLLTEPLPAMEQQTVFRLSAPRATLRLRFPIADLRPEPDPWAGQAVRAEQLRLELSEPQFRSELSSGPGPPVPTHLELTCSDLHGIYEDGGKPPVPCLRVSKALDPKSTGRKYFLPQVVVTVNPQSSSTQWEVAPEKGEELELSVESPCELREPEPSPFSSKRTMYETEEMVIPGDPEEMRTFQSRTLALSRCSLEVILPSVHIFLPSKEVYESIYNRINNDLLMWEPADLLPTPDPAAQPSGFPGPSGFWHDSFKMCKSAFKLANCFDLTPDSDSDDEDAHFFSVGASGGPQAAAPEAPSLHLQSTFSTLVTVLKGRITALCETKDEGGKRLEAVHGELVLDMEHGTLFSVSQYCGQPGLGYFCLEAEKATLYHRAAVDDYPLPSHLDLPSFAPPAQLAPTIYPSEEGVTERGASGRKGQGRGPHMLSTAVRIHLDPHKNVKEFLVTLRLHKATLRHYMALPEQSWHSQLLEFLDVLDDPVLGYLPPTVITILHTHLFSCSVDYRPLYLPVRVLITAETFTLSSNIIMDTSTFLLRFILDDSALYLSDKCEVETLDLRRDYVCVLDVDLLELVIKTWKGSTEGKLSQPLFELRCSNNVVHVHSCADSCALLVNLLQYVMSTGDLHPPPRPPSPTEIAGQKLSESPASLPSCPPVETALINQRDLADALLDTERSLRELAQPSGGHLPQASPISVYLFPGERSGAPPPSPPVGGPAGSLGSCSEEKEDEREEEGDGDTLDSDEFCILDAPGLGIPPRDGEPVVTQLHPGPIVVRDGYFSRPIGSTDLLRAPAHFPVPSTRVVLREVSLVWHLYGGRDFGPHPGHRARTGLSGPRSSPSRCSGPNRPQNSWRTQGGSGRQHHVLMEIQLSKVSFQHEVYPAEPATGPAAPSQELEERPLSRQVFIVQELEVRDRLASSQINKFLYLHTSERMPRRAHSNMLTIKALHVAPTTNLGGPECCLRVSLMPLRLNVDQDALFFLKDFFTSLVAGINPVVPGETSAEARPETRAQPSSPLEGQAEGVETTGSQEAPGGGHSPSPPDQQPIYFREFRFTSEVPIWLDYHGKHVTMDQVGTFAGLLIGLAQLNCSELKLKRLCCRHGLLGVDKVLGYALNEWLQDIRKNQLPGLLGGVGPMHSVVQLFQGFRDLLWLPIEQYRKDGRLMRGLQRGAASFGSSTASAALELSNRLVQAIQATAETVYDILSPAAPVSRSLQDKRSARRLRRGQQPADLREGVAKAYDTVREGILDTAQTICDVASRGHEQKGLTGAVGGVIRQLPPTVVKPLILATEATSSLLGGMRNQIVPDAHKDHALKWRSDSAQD


Legend:
Assay in all cases: co-IP
[1] = target: HA-tagged ATG2A-mLIR (FCIL/AAAA) (human) (UniProt Q2TAZ0)
[2] = target: Endogenous GFP-tagged ATG2A (CRISPR/Cas9 knock-in) (human) (UniProt Q2TAZ0)
[3] = target: HA-tagged ATG2A-mYFS (YFS/AAA) (human) (UniProt Q2TAZ0)
[4] = target: HA-tagged ATG2A wild type (human) (UniProt Q2TAZ0)
[5] = target: T1, HA-tagged ATG2A wild type (human), …; conditions: remark: other sources report otherwise

binding [1]	binding [2]	binding [3]	binding [4]	binding [5]	Binder
binds	binds	no binding	binds		WIPI4 (WDR45), endogenous (protein, UniProt Q9Y484 1-360) MTQQPLRGVTSLRFNQDQSCFCCAMETGVRIYNVEPLMEKGHLDHEQVGSMGLVEMLHRSNLLALVGGGSSPKFSEISVLIWDDAREGKDSKEKLVLEFTFTKPVLSVRMRHDKIVIVLKNRIYVYSFPDNPRKLFEFDTRDNPKGLCDLCPSLEKQLLVFPGHKCGSLQLVDLASTKPGTSSAPFTINAHQSDIACVSLNQPGTVVASASQKGTLIRLFDTQSKEKLVELRRGTDPATLYCINFSHDSSFLCASSDKGTVHIFALKDTRLNRRSALARVGKVGPMIGQYVDSQWSLASFTVPAESACICAFGRNTSKNVNSVIAICVDGTFHKYVFTPDGNCNREAFDVYLDICDDDDF
				binds	GFP-tagged GABARAP (U2OS ATG2A/B DKO cells), O95166 1-117 (protein) MKFVYKEEHPFEKRRSEGEKIRKKYPDRVPVIVEKAPKARIGDLDKKKYLVPSDLTVGQFYFLIRKRIHLRAEDALFFFVNNVIPPTSATMGQLYQEHHEEDFFLYIAYSDESVYGL
